Results published in article PMC4846377.

How the values were obtained:
Assay in all cases: EMSA
Settings in all cases: no divalent metal added; EMSA: 100 nM DNA, 31.5-2000 nM RecJ, 50 mM Tris pH 7.5, 60 mM KCl, 0.1 mg/ml BSA, 1 mM DTT, 5% glycerol, 30 C, 20 min; recombinant protein; residues 1-705; protein details: His-MBP tag removed by TEV; label: 3' 6-FAM; single-stranded DNA
[1] = target: drRecJ F269A (Deinococcus radiodurans) (UniProt D0EM60)
[2] = target: drRecJ R280A (Deinococcus radiodurans) (UniProt D0EM60)
[3] = target: drRecJ wild-type (Deinococcus radiodurans) (UniProt D0EM60)
[4] = target: drRecJ K353A (Deinococcus radiodurans) (UniProt D0EM60)
[5] = target: drRecJ R313A/R314A (Deinococcus radiodurans) (UniProt D0EM60)
[6] = target: drRecJ V224A (Deinococcus radiodurans) (UniProt D0EM60)

## AAAAAAAAAAAAAAAAAAAA [KY08 poly(dA)20]
[1]
  binding result: binds more weakly
[2]
  binding result: binds more weakly
[3]
  binding result: binds
[4]
  binding result: binds more weakly
[5]
  binding result: binds more weakly
[6]
  binding result: binds more weakly

For part of these data: Weaker means in comparison with the reference protein, sequence or condition of that experiment. For part of these data: The exact form of at least one protein or probe is not confirmed. For part of these data: At least one verdict rests on a figure or table, not on a statement of the authors.
